No constants are given. Whether binding was seen depends on the method and setting.
Biological target: recombinant Fc chimeric conjugate of human IL12 Rβ1 (human) (UniProt P42701)
Assay: ELISA, coated antigen

Row | Binder | binding
1 | Antibody 23 (antibody, V domains shown, rabbit IgG in B-cell supernatant) VH: QSLEESGGRLVKPGTPLTLTCTASGFSLSSYYMIWVRQAPGKGLEYIGIISSSGSTYYASWAKGRFTISKTSSTTVDLKMTSLTTEDTATYFCGVNNLWGQGTLVTVSS VL: DPVLTQTPSSVSAAVGGTVTISCQSSQSINNNDLSWFQKKPGQPPKRLIYEASTLTSGVPSRFKGSGSGTQFTLTISDVQCDDAATYYCLGGYYSYGWYFGFGGGTEVVVK | no binding (tested: OD 0.1 or lower)
2 | Antibody 24 (antibody, V domains shown, rabbit IgG in B-cell supernatant) VH: QSVEESGGRLVTPGTPLTLTCTVSGFSLSSNAISWVRQAPGKGLEWIGFINIYGSTYYASWAKGRFTISRTSTTVDLKMTSLTTEDTATYFCARDRTGDSPTRLDLWGQGTLVTVSS VL: DVVMTQTPASVEAAVGGTVTIKCQASQSISSYLSWYQQKPGQPPKLLIYDASTLASGVPSRFKGSGSGTQFTLTISDLECADAATYYCQCTYGYGASSAYGNAFGGGTEMVVK | no binding (tested: OD 0.1 or lower)
3 | Antibody B08 (antibody, V domains shown, rabbit IgG in B-cell supernatant) VH: QEHLVESGGGLVQPEGSLTLTCTASGFDFSSDDMSWVRQAPGKGLEWIGVIGTGNGGTYYASWAKGRFTISKTSSTTVTLQMTSLTAADTATYFCAAFWGLWGPGTLVTVSS VL: AQVLTQTASPVSAAVGGTVTITCQSSQSVYNNIRLAWFQQKPGQPPKLLIYTTSSLASGVPSRFKGSGSGTQFTLTISDLECDDAATYYCAGGYSSDIYTFGGGTEVVVR | no binding (tested: OD 0.1 or lower)
4 | Antibody D11 (antibody, V domains shown, rabbit IgG in B-cell supernatant) VH: QEHLVESGGGLVQPEGSLTLTCTASGFDFSSDDMSWVRQAPGKGLEWIGVIGTGNGGTYYASWAKGRFTISKTSSTTVTLQMTSLTAADTATYFCAAFWGLWGPGTLVTVSS VL: AQVLTQTPSPVSAAVGGTVTINCQSSQNVYRNNRLAWFQQKPGQPPKLLIYTASTLASGVPSRFKGSGSGTQFTLTISDLECDDAATYYCAGGYSTDIYTFGGGTEVVVR | no binding (tested: OD 0.1 or lower)
5 | Antibody D08 (antibody, V domains shown, rabbit IgG in B-cell supernatant) VH: QSLEESGGRLVTPGTPLTLTCTVSGFSLGTYWMSWVRQAPGRGLDWIGFIGSSGNGNYASWAKGRFTISRASSTTVDLKMTSLTTEDTATYFCARVKYFYYFDLWGQGTLVTVSS VL: AQVLTQTTSPVSAAVGGTVTINCQASESVYGKKYLSWYQQKPGQPPKQLIYEASKLASGVPSRFEGSGSGTQFTLTISGVQCDDAATYYCQGEFSCSSADCTAFGGGTEVVVK | no binding (tested: OD 0.1 or lower)
6 | Antibody 28 (antibody, V domains shown, rabbit IgG in B-cell supernatant) VH: QEQLEESGGDLVKPGASLTLTCKVSGFSLTSGYYMCWVRQAPGKGLEWLACIYTGSSGRTYYASWAKGRFTISKTSSTTVTLQMTSLTAADTATFFCARELYLSSVLWGPGTLVTVSS VL: DVVMTQTPASVSEPVGGTVTIKCQASQSISSSYLSWYQQKPGQPPKLLIYRASTLESGVPSRFKGSGSGTEFTLTISDLECADAATYYCQCTDYAGSYVGGAFGGGTEVVVK | no binding (tested: OD 0.1 or lower)
7 | Antibody 077.D03 (antibody, V domains shown, rabbit IgG in B-cell supernatant) VH: QSVEESGGRLVTPGTPLTLTCTVSGIDLSSNAMSWVRQAPGKGLEWIGFISSSGTTYYASWAKGRFTISKTSTTVDLKITSPTTEDTATYFCTRFDLWGQGTLVTVSS VL: DVVMTQTPASVSEPVGGTVTINCQASQSITTALAWYQQKPGQPPKLLIYKASTLASGVSSRFKGSGSGAEYTLTISDLECADAATYYCQCTGYDTSYVGGFGGGTEVVVK | no binding (tested: OD 0.1 or lower)
8 | Antibody 32 (antibody, V domains shown, rabbit IgG in B-cell supernatant) VH: QSVEESGGRLVTPGTPLTLTCTVSGFSLSSYDMSWVRQAPGKGLEWIGFIDGDSNTYDATWAKGRFTISKTSTTVDLKITSPTTEDTATYFCTRGFNLWGQGTLVTVSS VL: DVVMTQTPASVSEPVGGTVTIKCQASQSISSYLAWYQQKPGQPPKLLIYKASTLASGVSSRFKGSGSGTEFTLTISDLECADAATYYCQCSAGGRSGIGGFGGGTEVVVK | no binding (tested: OD 0.1 or lower)
9 | Antibody 52 (antibody, V domains shown, rabbit IgG in B-cell supernatant) VH: QSVEESGGRLVTPGTALTLTCTVSGFSLSSGDMSWVRQAPGKGLEWIGYIWSGVSTYYANWAKGRFTISKTSSTTVDLKMTSLTIEDTATYFCARVDFYSYVYSLWGPGTLVTVSS VL: ALVMTQTPASVEAAVGGTVTIKCQASQSISSCLAWYQQKPGQPPKLLIYSASTLASGVPSRFKGSGSGTEYTLTISGVECADAATYYCQQHYTSNNIDNAFGGGTEVVVK | no binding (tested: OD 0.1 or lower)
10 | Antibody 47 (antibody, V domains shown, rabbit IgG in B-cell supernatant) VH: QSVEESGGRLVTPGTPLTLTCTVSGFSLSSYAMNWVRQAPGKGLEWIGIIDSSGITYYATWAKGRFTISKTSTTVDLKMTSLTTEDTATYFCARGVTLWGQGTLVTVSS VL: AQVLTQTASPVSAAVGSTVTINCQASQSVYNNNRLSWFQQKPGQPPKLLISGASTLASGVSSRFSGSGSGTQFTLTISDVQCDDAATYYCLGSYDCSSADCGAFGGGTEVVVK | no binding (tested: OD 0.1 or lower)
11 | Antibody 53 (antibody, V domains shown, rabbit IgG in B-cell supernatant) VH: QSLEESGGRLVTPGGSLTLTCTVSGSDISTYDASWVRQAPGKGLEWIGYIWSGTKTYYASWAKGRFTISKTSSTTVDLKMTSLTTEDTATYFCATVNTYTYVYSLWGPGTLVTVSS VL: AYDMTQTPASVEVAVGGTVTIKCQASQSISSSLAWYQQKSGQPPKLLIYLASTLASGVPSRFKGSGSGTEYTLTISGVECADAATYYCQQHYTALNVDNAFGGGTEVVVK | no binding (tested: OD 0.1 or lower)
12 | Antibody 55 (antibody, V domains shown, rabbit IgG in B-cell supernatant) VH: QSLEESGGRLVTPGGSLTLTCTVSGSDISSYDMSWVRQAPGKGLEWIGYIWSGTTIYYASWPKGRFTISKTSSTTVDLKMTSLTTEDTATYFCAAINIYTYVYSLWGPGTLVTVSS VL: AYDMTQTPASVEAAVGGTVTIKCQASESIYSSLAWYQQKSGQPPKLLIYLASTLASGVPSRFKGSGSGTDYTLTISGVECADAATYYCQQHYSGSNVDNAFGGGTEVVVK | no binding (tested: OD 0.1 or lower)
13 | Antibody 56 (antibody, V domains shown, rabbit IgG in B-cell supernatant) VH: QSLEESGGRLVTPGTPLTLTCTASGFSLSSYDLSWVRQAPGKGLEWIAYIWSGDKTYYANWAKGRFTISKTSSTTVDLKMTSLTTEDTATYFCATVNIYSYVYSLWGPGTLVTVSS VL: AYDMTQTPASVEVAVGGTVTIKCQASQSISTALAWYQQKSGQPPKLLIYLASTLASGVPSRFKGSGSGTEYTLTISGVECADAATYYCQQHYSSNNVDNAFGGGTEVVVK | no binding (tested: OD 0.1 or lower)
14 | Antibody 60 (antibody, V domains shown) VH: QSLEESGGRLVTPGGSLTLTCTVSGSDISSYDMSWVRQAPGKGLEWIGYIWSGTTTYYANWAKGRFTISKTSSTTVDLKMTSLTTEDTATYFCATVNIYTYVYSLWGPGTLVTVSS VL: AYDMTQTPASVEVAVGGTVTIKCQASQSISTALAWYQQKSGQPPKLLIYLASTLASGVPSRFKGSGSGTEYTLTISGVECADAATYYCQQHYSGNNVDNAFGGGTEVVVK | no binding (tested: OD 0.1 or lower)
15 | Antibody 62 (antibody, V domains shown, rabbit IgG in B-cell supernatant) VH: QSVEESGGRLVTPGTPLTLTCTVSGFSLSTNDIGWVRQAPGKGLEWIGYIWSGVKTYYVGWAKGRFTISKTSSTTVDLKMTSLTTEDTATYFCARVNSFSYVYSLWGPGTLVTVSS VL: AYDMTQTPGSVEVAVGGTVTIKCQASEDIHSSLAWYQQKPGQPPKLLIYLASTLESGVPSRFKGSGSGTEYTLTISGVECADAATYYCQQHHSTSGVDNAFGGGTEVVVK | no binding (tested: OD 0.1 or lower)
16 | Antibody 64 (antibody, V domains shown, rabbit IgG in B-cell supernatant) VH: QEQLKESGGGLVTPGTPLTLTCTASGFTISSYDMGWVRQAPGKGLEWIGYIWSGGSTYYANWAKGRFTISKTSTTVDLKMTSLTTEDTATYFCARVEFYSYVYVLWGPGTLVTVSS VL: AFELTQTPSSVEAAVGGTVTIKCQASQSISGCLAWYQQKPGQPPKLLIYLASTLASGVSSRFRGSGSGTEYTLTISGVECDDAATYYCQQHYSSNNVDNAFGGGTEVVVK | no binding (tested: OD 0.1 or lower)
17 | Antibody 75 (antibody, V domains shown, rabbit IgG in B-cell supernatant) VH: QSVEESGGRLVTPGTPLTLTCTVSGFSLSRNAMSWVRQAPGKGLEWIGIINIYGTTWYASWAKGRFTISKTSSTTVTLKITSPTTEDTATYFCARDYGGDSATRLNLWGQGTLVTVSS VL: DVVMTQTPASVEAAVGGTVTIKCQASQSIGGYLSWYQQKPGQPPKLLIYDASNLEIGVPSRFKGSGSGTEYTLTISDLECADAVTYYCQCTYGYGISSSYGNAFGGGTEVVVK | no binding (tested: OD 0.1 or lower)
18 | Antibody 71 (antibody, V domains shown, rabbit IgG in B-cell supernatant) VH: QSVEESGGRLVTPGTPLTLTCTVSGFSLSRNAMSWVRQAPGKGLEWIGIINIYGTTWHAGWAKGRFTISKTSSTTVTLKITSPTTEDTATYFCARDYGGDSATRLNLWGQGTLVTVSS VL: DVVMTQTPASVEAAVGGTVTIKCQASQSIGGYLSWYQQKPGQPPKLLIYDASNLEIGVPSRFKGSGSGTEYTLTISDLECADAVTYYCQCTYGYGISSSYGNAFGGGTEVVVK | no binding (tested: OD 0.1 or lower)
19 | Antibody 79 (antibody, V domains shown, rabbit IgG in B-cell supernatant) VH: QSVEESGGRLVTPGTPLTLTCTVSGFSLSSNAMSWVRQAPGKGLEWIGIINIYGSTNYASWAKGRFTISKTSSTTVDLKITSPTTEDTATYFCARDYGGVSATRLDLWGQGTLVTVSS VL: DVVMTQTPASVEAAVGGTVTIKCQASQSIGSYLSWYQQKPGQPPKLLIYDASNLEDGVPSRFKGSGSGTEYTLTISDLECADAVTYYCQCTYGYGISSSYGNAFGGGTEVVVK | no binding (tested: OD 0.1 or lower)
20 | Antibody 1 (antibody, V domains shown, rabbit IgG in B-cell supernatant) VH: QSLEESGGRLVTPGTPLTLTCTASGFSLSSYAMIWVRQAPGEGLEYIGIIITGGSAYYANWAKGRFTISRTSTTVDLKMTSLTTEDTATYFCARGYSGSSGDLWGQGTLVTVSS VL: DVVMTQTPASVSEPVGGTVTIKCQASQSISSWLSWYQQKPGQPPKLLIYGASNLASGVSSRFKGSRSGTEYTLTISDLECADAATYYCQCTDYTSKYVGAFGGGTEVLVR | no binding (tested: OD 0.1 or lower)
21 | Antibody 87 (antibody, V domains shown, rabbit IgG in B-cell supernatant) VH: QSVEESGGRLVTPGTPLTVTCTVSGFSLSSYVMSWVRQAPGKGLEWIGIIASSGHTYYATWAKGRFTISKTSTTVDLKITSPTTEDTATYFCARYGSDSGWGYYFTLWGPGTLVTVSS VL: AQVLTQTPSSVSEPVGGTVTINCQASENIYSYLSWYQQKRGQPPKLLIYGASTLASGVPSRFKGSGSGTEYTLTISDLECDDAATYYCQSGYYTNSGDLAFGGGTEVVVK | no binding (tested: OD 0.1 or lower)
